Some results were stated once for a whole list of compounds, not compound by compound. At least one compound was matched to its structure with a doubt left.
Tested on: A549-CD-IRES-EGFP cells
Assay: Growth inhibition assay (MTT), CD gene-modified A549 cells
Format: cell-based, human
Settings: CD gene-modified vs control A549 cells
Method: . […] Five days following the last transduction round, flow cytometry analysis was performed to determine gene transfer efficiency and transgene expression as evaluated by GFP fluorescence. Stably transduced A549-CD-IRES-EGFP cells were subsequently expanded in complete media only, as well as in the presence of two different concentrations of ARA-C, 1 μM and 2.5 μM, for 12 days.
Gene-modified A549 cells were plated in 96-well flat-bottom tissue culture dishes at a density of 1500 cells per well. Various concentrations of ARA-C or dFdC (Lilly Research Laboratories, Indianapolis, Ind.) were added to cells in a final volume of 100 μl RPMI/10% FBS. Cells were placed at 37° C. and 4 days later exposed to 20 μl of a solution containing 3-(4,5-deimethylthiazol-2-yl)-2,5-diphenyltetrazolium bromide, i.e. MTT, for 4 hours at 37° C., and subsequently to 100 μl of a solubilization buffer (50% N,N-dimethylformamide, 20% SDS) for approximately 15 hours. The optical density was then measured at 570 nm with reference at 630 nm using a multi-well plate reader, thus providing an assessment of the percentage of surviving cells based on the cleavage of MTT by the mitochondrial dehydrogenases of living cells to the detectable formazan. Percent cell survival was ascertained using the following equation: [formula]

## Nc1ccn([C@@H]2O[C@H](CO)[C@@H](O)C2(F)F)c(=O)n1 [dFdC]
  increase in IC50 after CD gene transfer: over 10 fold

Source: patent US20040115800A1, “Selectable marker for genetically engineered cells and tissues” (priority 2003, published 2004)
